# Test results from the supplement of paper PMC12067093, “Discovery and optimisation of a covalent ligand for TRIM25 and its application to targeted protein ubiquitination” (Chemical Science, 2025).
# Sequences of proteins named here, by UniProt entry; tags and fusion partners are left off. A change or cut given only in a name is not applied to a line headed by its entry.
# UniProt Q9HCE1: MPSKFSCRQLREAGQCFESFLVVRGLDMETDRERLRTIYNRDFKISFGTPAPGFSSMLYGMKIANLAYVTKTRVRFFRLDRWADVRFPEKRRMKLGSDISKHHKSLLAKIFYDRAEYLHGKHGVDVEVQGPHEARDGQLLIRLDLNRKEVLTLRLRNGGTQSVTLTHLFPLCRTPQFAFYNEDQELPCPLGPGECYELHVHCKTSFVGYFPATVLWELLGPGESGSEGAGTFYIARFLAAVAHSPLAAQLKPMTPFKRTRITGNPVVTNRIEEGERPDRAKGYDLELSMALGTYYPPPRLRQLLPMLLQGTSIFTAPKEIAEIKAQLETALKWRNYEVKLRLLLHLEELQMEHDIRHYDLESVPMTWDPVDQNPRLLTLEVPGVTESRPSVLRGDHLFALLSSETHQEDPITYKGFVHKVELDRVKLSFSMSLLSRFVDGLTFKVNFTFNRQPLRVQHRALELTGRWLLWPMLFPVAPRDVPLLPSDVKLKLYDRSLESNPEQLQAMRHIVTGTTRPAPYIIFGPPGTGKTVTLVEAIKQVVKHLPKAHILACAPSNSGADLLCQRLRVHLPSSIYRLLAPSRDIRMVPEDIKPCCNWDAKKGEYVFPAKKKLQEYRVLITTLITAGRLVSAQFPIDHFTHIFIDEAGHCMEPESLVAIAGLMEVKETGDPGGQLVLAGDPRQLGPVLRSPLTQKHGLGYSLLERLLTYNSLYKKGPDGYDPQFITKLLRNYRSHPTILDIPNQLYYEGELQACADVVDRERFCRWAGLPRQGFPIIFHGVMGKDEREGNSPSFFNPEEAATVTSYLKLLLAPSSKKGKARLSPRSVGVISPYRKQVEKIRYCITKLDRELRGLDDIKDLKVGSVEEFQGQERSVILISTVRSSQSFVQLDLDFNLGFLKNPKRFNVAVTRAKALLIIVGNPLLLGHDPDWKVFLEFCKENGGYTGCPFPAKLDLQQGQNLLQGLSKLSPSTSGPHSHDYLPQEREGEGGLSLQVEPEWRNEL
# UniProt Q8IWI9: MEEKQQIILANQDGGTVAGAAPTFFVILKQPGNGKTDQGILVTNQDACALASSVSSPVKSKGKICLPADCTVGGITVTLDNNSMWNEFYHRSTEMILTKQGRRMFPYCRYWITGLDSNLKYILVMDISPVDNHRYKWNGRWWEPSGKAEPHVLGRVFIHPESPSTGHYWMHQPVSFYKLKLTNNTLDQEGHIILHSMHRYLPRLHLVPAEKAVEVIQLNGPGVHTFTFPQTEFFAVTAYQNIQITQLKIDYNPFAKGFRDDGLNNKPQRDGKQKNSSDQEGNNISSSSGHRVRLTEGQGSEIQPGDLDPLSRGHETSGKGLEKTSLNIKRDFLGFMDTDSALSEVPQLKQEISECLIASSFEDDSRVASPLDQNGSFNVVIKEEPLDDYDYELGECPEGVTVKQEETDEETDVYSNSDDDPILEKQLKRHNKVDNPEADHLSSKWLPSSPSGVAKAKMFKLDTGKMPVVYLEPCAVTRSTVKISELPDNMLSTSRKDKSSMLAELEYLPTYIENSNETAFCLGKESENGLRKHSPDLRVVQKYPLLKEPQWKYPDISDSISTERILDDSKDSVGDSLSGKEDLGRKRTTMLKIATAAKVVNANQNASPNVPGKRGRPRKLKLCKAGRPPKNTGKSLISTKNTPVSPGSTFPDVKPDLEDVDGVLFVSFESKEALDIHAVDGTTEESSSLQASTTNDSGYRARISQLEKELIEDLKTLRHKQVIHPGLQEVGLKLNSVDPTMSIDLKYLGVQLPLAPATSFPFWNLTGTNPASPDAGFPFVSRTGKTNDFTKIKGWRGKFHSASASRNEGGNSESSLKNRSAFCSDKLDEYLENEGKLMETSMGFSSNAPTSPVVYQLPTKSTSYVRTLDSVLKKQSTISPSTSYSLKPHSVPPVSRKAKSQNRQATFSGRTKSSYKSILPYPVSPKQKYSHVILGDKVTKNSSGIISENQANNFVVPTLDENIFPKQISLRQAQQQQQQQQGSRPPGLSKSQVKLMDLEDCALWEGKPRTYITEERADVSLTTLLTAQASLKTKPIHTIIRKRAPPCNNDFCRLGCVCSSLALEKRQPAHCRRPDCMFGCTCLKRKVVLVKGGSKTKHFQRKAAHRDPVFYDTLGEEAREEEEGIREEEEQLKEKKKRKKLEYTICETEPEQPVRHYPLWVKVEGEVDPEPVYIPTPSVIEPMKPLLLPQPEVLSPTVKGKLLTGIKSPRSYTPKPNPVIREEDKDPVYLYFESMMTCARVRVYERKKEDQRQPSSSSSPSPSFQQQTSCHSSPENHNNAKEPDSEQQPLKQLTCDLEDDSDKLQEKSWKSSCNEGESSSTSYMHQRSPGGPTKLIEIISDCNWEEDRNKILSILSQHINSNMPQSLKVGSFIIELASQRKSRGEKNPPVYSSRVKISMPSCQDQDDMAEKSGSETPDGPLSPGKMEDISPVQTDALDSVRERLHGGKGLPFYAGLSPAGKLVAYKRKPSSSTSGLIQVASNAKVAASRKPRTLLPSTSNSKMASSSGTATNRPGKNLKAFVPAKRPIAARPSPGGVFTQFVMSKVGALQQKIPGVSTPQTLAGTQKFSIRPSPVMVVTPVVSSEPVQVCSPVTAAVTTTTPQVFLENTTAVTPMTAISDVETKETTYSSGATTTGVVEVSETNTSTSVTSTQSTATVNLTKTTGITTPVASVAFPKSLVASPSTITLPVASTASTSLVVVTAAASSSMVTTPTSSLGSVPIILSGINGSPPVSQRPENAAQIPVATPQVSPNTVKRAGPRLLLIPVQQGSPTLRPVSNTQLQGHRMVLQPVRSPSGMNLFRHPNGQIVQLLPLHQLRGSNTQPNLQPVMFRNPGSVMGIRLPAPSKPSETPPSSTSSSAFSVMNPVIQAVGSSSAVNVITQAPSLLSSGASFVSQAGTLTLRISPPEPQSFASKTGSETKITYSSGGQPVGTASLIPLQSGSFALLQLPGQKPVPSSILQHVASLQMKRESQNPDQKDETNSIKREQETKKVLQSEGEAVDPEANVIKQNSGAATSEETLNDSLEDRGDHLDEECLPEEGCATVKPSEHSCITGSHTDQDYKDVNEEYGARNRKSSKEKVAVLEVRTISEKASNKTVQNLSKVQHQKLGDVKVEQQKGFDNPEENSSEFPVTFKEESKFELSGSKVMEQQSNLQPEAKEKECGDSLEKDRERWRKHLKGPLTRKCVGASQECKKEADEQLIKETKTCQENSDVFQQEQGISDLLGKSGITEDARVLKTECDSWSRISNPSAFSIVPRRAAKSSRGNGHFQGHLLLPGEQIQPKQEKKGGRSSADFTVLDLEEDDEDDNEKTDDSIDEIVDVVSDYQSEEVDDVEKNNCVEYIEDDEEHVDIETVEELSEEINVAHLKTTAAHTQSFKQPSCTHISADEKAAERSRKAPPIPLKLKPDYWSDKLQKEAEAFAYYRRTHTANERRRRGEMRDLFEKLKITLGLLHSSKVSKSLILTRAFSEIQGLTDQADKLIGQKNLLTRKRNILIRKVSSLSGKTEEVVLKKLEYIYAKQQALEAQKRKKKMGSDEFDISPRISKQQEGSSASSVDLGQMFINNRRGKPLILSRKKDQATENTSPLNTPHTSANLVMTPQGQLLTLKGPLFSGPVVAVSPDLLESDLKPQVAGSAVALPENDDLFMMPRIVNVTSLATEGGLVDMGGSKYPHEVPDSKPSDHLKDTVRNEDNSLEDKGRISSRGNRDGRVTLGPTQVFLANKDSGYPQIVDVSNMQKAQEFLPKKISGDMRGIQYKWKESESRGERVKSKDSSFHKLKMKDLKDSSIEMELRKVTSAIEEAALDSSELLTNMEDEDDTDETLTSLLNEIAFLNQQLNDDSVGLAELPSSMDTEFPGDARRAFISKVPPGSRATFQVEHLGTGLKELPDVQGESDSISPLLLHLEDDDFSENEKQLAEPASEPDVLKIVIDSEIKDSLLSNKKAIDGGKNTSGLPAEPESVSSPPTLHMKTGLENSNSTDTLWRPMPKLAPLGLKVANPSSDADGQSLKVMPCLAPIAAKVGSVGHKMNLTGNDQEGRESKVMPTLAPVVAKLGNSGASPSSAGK
# UniProt Q99549: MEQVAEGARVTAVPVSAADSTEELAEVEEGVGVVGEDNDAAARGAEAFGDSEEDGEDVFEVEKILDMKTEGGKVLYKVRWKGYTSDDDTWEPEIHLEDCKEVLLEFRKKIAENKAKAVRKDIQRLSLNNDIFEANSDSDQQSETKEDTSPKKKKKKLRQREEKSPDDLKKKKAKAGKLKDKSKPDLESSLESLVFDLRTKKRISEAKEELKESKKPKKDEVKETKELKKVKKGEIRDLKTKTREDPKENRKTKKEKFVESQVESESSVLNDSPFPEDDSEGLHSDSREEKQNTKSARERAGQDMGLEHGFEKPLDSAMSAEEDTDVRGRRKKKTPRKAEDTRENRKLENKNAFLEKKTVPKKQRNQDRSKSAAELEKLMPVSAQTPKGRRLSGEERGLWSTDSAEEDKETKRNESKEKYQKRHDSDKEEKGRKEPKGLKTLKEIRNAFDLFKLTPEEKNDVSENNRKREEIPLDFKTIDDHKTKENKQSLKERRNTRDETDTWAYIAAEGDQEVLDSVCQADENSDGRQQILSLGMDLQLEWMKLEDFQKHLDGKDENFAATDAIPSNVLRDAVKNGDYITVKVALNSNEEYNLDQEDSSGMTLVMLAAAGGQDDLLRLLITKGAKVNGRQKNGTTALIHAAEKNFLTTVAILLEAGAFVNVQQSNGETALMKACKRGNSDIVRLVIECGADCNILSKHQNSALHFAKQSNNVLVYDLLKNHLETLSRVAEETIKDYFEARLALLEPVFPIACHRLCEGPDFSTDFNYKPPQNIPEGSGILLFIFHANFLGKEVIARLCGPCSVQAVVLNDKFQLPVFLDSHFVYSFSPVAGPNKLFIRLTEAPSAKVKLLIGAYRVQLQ
# UniProt Q96T76: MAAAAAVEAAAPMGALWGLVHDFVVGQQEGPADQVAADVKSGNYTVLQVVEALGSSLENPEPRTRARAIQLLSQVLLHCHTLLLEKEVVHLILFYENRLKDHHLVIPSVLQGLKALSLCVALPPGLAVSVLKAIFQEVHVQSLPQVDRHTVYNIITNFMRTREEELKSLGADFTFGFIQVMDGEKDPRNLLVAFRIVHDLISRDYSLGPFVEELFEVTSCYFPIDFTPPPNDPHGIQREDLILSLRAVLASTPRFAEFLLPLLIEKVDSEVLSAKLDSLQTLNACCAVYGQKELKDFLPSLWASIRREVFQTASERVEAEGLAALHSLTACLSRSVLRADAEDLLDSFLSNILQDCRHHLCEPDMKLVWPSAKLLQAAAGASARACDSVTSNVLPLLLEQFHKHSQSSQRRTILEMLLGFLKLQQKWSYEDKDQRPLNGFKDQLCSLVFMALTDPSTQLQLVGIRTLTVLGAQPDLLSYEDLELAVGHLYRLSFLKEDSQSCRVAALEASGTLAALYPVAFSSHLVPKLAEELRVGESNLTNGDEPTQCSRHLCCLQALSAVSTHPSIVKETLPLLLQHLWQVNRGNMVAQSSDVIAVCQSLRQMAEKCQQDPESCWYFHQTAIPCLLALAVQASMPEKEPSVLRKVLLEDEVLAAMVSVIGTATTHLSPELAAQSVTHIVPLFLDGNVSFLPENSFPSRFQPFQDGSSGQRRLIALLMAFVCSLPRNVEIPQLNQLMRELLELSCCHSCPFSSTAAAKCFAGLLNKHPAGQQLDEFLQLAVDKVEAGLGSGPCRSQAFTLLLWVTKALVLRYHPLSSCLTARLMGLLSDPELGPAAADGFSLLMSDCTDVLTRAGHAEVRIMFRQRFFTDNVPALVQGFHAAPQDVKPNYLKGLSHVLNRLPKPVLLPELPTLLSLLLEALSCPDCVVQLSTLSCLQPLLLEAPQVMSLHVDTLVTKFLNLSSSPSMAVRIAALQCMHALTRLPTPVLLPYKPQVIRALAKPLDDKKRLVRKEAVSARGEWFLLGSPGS
# UniProt Q9NZW5: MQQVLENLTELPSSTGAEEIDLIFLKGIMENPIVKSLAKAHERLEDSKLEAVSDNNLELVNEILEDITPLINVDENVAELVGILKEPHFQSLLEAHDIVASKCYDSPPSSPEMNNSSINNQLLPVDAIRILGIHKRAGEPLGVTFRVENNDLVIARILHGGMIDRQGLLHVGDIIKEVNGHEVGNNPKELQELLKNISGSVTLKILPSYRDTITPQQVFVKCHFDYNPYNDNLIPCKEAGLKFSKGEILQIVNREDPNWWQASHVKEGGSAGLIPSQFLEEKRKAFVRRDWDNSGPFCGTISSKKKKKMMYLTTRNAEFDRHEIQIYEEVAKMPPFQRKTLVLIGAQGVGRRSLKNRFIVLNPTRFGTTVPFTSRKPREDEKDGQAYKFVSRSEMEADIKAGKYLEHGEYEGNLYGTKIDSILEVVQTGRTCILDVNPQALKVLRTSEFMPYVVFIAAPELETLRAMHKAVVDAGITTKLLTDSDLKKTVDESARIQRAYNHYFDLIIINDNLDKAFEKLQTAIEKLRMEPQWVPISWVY
# The list shows a part of the results.
# Compound: CC1Cc2ccccc2N1C(=O)C1CCCN(C1)C(=O)CCl (mixture of isomers) [TRIM25 ligand 11 (diastereomer mixture)]
# Assay: probe-labelled cysteine peptide fold change vs DMSO (competition) (log2 fold change); higher = less target engagement (more negative = stronger competition)
# Details: THP-1, incubation time: 4 h
# 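Note: competitive chemoproteomic profiling in live THP-1 cells with an iodoacetamide desthiobiotin (IA-DTB) probe, comparing probe-labelled peptide intensities in compound-treated cells against DMSO-treated controls.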
Target,probe-labelled cysteine peptide fold change (10 µM),probe-labelled cysteine peptide fold change (50 µM)
MORC2_Q9Y6X9_499+502_AMEIPTTIQCDLCLK (UniProt Q9Y6X9),-0.152,0.00238
MOV10_Q9HCE1_564_AHILACAPSNSGADLLCQR (UniProt Q9HCE1),0.00542,-0.0618
MINK1_Q8N4C8_269_KFIDFIDTCLIK (UniProt Q8N4C8),-0.175,-0.00214
MGA_Q8IWI9_355_QEISECLIASSFEDDSR (UniProt Q8IWI9),-0.309,-0.16
MPHOSPH8_Q99549_753_LALLEPVFPIACHR (UniProt Q99549),0.177,0.242
MMS19_Q96T76_750_ELLELSCCHSCPFSSTAAAK (UniProt Q96T76),0.152,-0.12
MKLN1_Q9UL63_582_SLQEEEPCPR (UniProt Q9UL63),0.00509,-0.115
MPP6_Q9NZW5_103_CYDSPPSSPEMNNSSINNQLLPVDAIR (UniProt Q9NZW5),-0.222,-0.345
MKS1_Q9NXB0_226_KYEHVLCTLK (UniProt Q9NXB0),-0.0768,0.279
MLST8_Q9BVC4_34_FWQAHSGICTR (UniProt Q9BVC4),-0.0292,0.153
MRGBP_Q9NV56_59_HFHMICIR (UniProt Q9NV56),-0.144,-0.0698
MRPL19_P49406_248_GIRFDLCLTEQQMK (UniProt P49406),-0.116,-0.11
MLEC_Q14165_206_VCALYIMAGTVDDVPK (UniProt Q14165),-0.014,0.0498
MNAT1_P51948_49_GAGNCPECGTPLR (UniProt P51948),0.159,0.176

# Full records as entered above.
# MPP6_Q9NZW5_103_CYDSPPSSPEMNNSSINNQLLPVDAIR (UniProt Q9NZW5) in the list: probe-labelled cysteine peptide fold change (10 µM): -0.222; probe-labelled cysteine peptide fold change (50 µM): -0.345
# MMS19_Q96T76_750_ELLELSCCHSCPFSSTAAAK (UniProt Q96T76) in the list: probe-labelled cysteine peptide fold change (10 µM): 0.152; probe-labelled cysteine peptide fold change (50 µM): -0.12
